Data as given in PubChem BioAssay AID1159578 (Peter MacCallum Cancer Centre, 2015).
Here is an unselected part of about 18,000 reagents tested. Of all reagents, about 1,030 (5.7%) were called active. 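Inactive calls also include pools with fewer than 3300 nuclei, whose migration was not assessed.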 Raw values vary from plate to plate and are shown uncorrected. Reagent sequences are not shown.

Purpose: 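Genome-wide hunt for genes controlling movement of lymphatic endothelial cells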 (primary screen)
System: human lymphatic endothelial cells
Reagents: siRNA pool against human genes, 40 nM
Duration: 48 h after transfection
Read-out: 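High-content imaging of dye-stained cells in a scratch assay measures filled wound area and nuclei per well; duplicate means given as ratio to mock and robust z-score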
Reading the numbers: migration robust z-score: higher = faster migration into the scratch; migration relative to mock: higher = more scratch area covered than mock; nuclei per well: higher = more cells in the well
Hit rule: 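Pools averaging fewer than 3300 nuclei are never called; remaining pools count as changed when migration robust z lies outside -2 to 2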
Meaning of the calls: active = migration changed; inactive = no migration change, or too few cells

no.	Target gene	migration robust z-score	migration class with cell-count check	migration relative to mock	nuclei per well, duplicate mean	call
1	A1CF (APOBEC1 complementation factor)	-0.02	migration z between -2 and 2; enough cells	0.88	5844	inactive
2	BRPF3 (bromodomain and PHD finger containing 3)	0.2	migration z between -2 and 2; enough cells	0.84	4806	inactive
3	NEK5 (NIMA related kinase 5)	-0.18	migration z between -2 and 2; enough cells	0.77	4347	inactive
4	EPHA2 (EPH receptor A2)	-0.21	migration z between -2 and 2; enough cells	0.76	4524	inactive
5	MAPK13 (mitogen-activated protein kinase 13)	-0.38	migration z between -2 and 2; enough cells	0.73	4426	inactive
6	KRT32 (keratin 32)	2.58	migration z above 2; enough cells	1.55	5900	active
7	FCRL5 (Fc receptor like 5)	1.68	migration z between -2 and 2; enough cells	1.32	6780	inactive
8	H2BC17 (H2B clustered histone 17)	-4.28	under 3300 nuclei; migration not judged	-0.22	2240	inactive
9	FIGN (fidgetin, microtubule severing factor)	0.35	migration z between -2 and 2; enough cells	0.98	4605	inactive
10	GNAT1 (G protein subunit alpha transducin 1)	0.03	migration z between -2 and 2; enough cells	0.89	5838	inactive
11	EXOSC10 (exosome component 10)	-0.52	migration z between -2 and 2; enough cells	0.7	4870	inactive
12	ERV3-1 (endogenous retrovirus group 3 member 1, envelope)	2.21	migration z above 2; enough cells	1.46	5999	active
13	IER5 (immediate early response 5)	-0.82	migration z between -2 and 2; enough cells	0.67	4445	inactive

3 entries from above, set out differently:
| Target gene | migration robust z-score | migration class with cell-count check | migration relative to mock | nuclei per well, duplicate mean | call |
| --- | --- | --- | --- | --- | --- |
| MAPK13 (mitogen-activated protein kinase 13) | -0.38 | migration z between -2 and 2; enough cells | 0.73 | 4426 | inactive |
| KRT32 (keratin 32) | 2.58 | migration z above 2; enough cells | 1.55 | 5900 | active |
| FCRL5 (Fc receptor like 5) | 1.68 | migration z between -2 and 2; enough cells | 1.32 | 6780 | inactive |

The results go on:
no.	Target gene	migration robust z-score	migration class with cell-count check	migration relative to mock	nuclei per well, duplicate mean	call
14	FAM217B (family with sequence similarity 217 member B)	-0.23	migration z between -2 and 2; enough cells	0.83	6866	inactive
15	MYO19 (myosin XIX)	0.94	migration z between -2 and 2; enough cells	1.13	5504	inactive
16	YIPF2 (Yip1 domain family member 2)	0.6	migration z between -2 and 2; enough cells	1.04	5494	inactive
17	ASB4 (ankyrin repeat and SOCS box containing 4)	0.78	migration z between -2 and 2; enough cells	0.96	4708	inactive
18	PRORSD1P	-0.73	migration z between -2 and 2; enough cells	0.7	5800	inactive
19	LGI1 (leucine rich glioma inactivated 1)	-0.37	migration z between -2 and 2; enough cells	0.79	5316	inactive
20	SAT1 (spermidine/spermine N1-acetyltransferase 1)	1.53	migration z between -2 and 2; enough cells	1.1	5082	inactive
21	SRSF11 (serine and arginine rich splicing factor 11)	1.52	migration z between -2 and 2; enough cells	1.28	5799	inactive
22	ZNF830 (zinc finger protein 830)	-0.34	migration z between -2 and 2; enough cells	0.8	4248	inactive
23	NSD2 (nuclear receptor binding SET domain protein 2)	0.36	migration z between -2 and 2; enough cells	0.88	4560	inactive
